Measurements reported in PubChem BioAssay AID1224830 (NIAID, 2016).
This is one part, drawn at random, of about 18,000 reagents tested. About 2,900 of all reagents (16%) count as active. 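Calls are made per well; low scores hint the gene aids the LPS response, high scores that it dampens it.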 A number with no mark means an inactive call. Repeated entries: four replicate wells of each siRNA pool.

Aim: 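Regulators of TLR4 signalling towards TNF-alpha in macrophage-like cells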 (primary screen)
Cell system: human THP-1 monocytic leukaemia cells, TNF dual-luciferase reporter clone, PMA-differentiated to macrophage-like cells
Reagent: siRNA pool against human genes, 50 nM
Time to read-out: LPS for 4 h, given about 3 days after siRNA transfection
Challenge: bacterial LPS (TLR4 ligand), 10 ng/ml
Measured: 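TNF firefly reporter luminescence divided by renilla, normalised to the plate median, then turned into a robust z-score for each replicate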
Direction: TNF reporter robust z-score: higher = stronger TNF reporter response to LPS
Rule for the call: 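a well is active when its z-score exceeds 2.8 or falls below -1.5; control wells carry no call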

The opening 4 records, ahead of the listing:
Target gene	TNF reporter robust z-score
POGLUT1 (GeneID 56983)	-0.21
POGLUT1 (GeneID 56983)	0.47
POGLUT1 (GeneID 56983)	-0.31
POGLUT1 (GeneID 56983)	0.56

The listing, repeating the preview:
Target gene	TNF reporter robust z-score
POGLUT1 (GeneID 56983)	-0.21
POGLUT1 (GeneID 56983)	0.47
POGLUT1 (GeneID 56983)	-0.31
POGLUT1 (GeneID 56983)	0.56
TPRN (GeneID 286262)	-1.37
TPRN (GeneID 286262)	-0.79
TPRN (GeneID 286262)	-1.06
TPRN (GeneID 286262)	-0.8
CPA2 (GeneID 1358)	1.41
CPA2 (GeneID 1358)	0.22
CPA2 (GeneID 1358)	1.05
CPA2 (GeneID 1358)	-0.1
AMER3 (GeneID 205147)	0.81
AMER3 (GeneID 205147)	0.22
AMER3 (GeneID 205147)	2.06
AMER3 (GeneID 205147)	1.75
CBFB (GeneID 865)	-0.83
CBFB (GeneID 865)	0.86
CBFB (GeneID 865)	-0.24
CBFB (GeneID 865)	0.26
GTF2IRD2B (GeneID 389524)	2.77
GTF2IRD2B (GeneID 389524)	2.47
GTF2IRD2B (GeneID 389524)	3.98 (active)
GTF2IRD2B (GeneID 389524)	3.06 (active)
CLEC5A (GeneID 23601)	1.41
CLEC5A (GeneID 23601)	1.05
CLEC5A (GeneID 23601)	-0.75
CLEC5A (GeneID 23601)	-0.44
NPY4R (GeneID 5540)	1.13
NPY4R (GeneID 5540)	1.3
NPY4R (GeneID 5540)	0.58
NPY4R (GeneID 5540)	0.96
FKBP5 (GeneID 2289)	-0.86
FKBP5 (GeneID 2289)	-0.33
FKBP5 (GeneID 2289)	-0.61
FKBP5 (GeneID 2289)	0.02
LRATD1 (GeneID 151354)	10.4 (active)
LRATD1 (GeneID 151354)	0.35
LRATD1 (GeneID 151354)	0.97
LRATD1 (GeneID 151354)	0
SETBP1 (GeneID 26040)	0.6
SETBP1 (GeneID 26040)	3.92 (active)
SETBP1 (GeneID 26040)	0.58
SETBP1 (GeneID 26040)	0.34
AQP3 (GeneID 360)	-0.51
AQP3 (GeneID 360)	1.33
AQP3 (GeneID 360)	0.35
AQP3 (GeneID 360)	-0.12
